This experiment addresses human CCR2, endogenous on THP-1 cells / THP-1 cell membranes, fresh PBMC and whole blood cells (human) (UniProt P41597). Description: inhibition of 0.1 nM [125I]-MCP-1 binding to whole THP-1 cells (FIG. 25).

Protein sequences, listed by entry. Tags and fused reporters are not part of them.
UniProt P41597: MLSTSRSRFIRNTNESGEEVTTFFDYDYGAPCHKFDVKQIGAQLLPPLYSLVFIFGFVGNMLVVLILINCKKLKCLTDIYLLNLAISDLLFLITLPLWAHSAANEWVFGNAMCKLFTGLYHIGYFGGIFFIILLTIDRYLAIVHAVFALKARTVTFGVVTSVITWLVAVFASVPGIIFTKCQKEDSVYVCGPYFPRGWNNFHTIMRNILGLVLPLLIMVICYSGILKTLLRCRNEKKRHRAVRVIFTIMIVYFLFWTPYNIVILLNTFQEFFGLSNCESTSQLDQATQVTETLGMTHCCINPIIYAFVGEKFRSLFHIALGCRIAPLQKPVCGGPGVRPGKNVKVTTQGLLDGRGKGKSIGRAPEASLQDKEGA

Results are given in words; binding and its absence hold for the method and conditions named. Some entries that bind do so weakly or less than the wild type.

B1: humanized version of mAb 1D9 comprising the 1D9RHAVH heavy chain and the 1D9RKAVK light chain (antibody, V domains shown)
VH: EVQLVESGGGLVKPGGSLRLSCAASGFTFSAYAMNWVRQAPGKGLEWVGRIRTKNNNYATYYADSVKDRFTISRDDSKNTLYLQMNSLKTEDTAVYYCTTFYGNGVWGQGTLVTVSS
VL: DVVMTQSPLSLPVTLGQPASISCKSSQSLLDSDGKTFLNWFQQRPGQSPRRLIYLVSKLDSGVPDRFSGSGSGTDFTLKISRVEAEDVGVYYCWQGTHFPYTFGQGTRLEIK
As to B1, the binding entry is recorded as “binds”.

The values are drawn from US20040151721A1.
